Test results from PMC8689486.

Sequences of proteins named here, by UniProt entry; tags and fusion partners are left off.
UniProt Q7SIG6: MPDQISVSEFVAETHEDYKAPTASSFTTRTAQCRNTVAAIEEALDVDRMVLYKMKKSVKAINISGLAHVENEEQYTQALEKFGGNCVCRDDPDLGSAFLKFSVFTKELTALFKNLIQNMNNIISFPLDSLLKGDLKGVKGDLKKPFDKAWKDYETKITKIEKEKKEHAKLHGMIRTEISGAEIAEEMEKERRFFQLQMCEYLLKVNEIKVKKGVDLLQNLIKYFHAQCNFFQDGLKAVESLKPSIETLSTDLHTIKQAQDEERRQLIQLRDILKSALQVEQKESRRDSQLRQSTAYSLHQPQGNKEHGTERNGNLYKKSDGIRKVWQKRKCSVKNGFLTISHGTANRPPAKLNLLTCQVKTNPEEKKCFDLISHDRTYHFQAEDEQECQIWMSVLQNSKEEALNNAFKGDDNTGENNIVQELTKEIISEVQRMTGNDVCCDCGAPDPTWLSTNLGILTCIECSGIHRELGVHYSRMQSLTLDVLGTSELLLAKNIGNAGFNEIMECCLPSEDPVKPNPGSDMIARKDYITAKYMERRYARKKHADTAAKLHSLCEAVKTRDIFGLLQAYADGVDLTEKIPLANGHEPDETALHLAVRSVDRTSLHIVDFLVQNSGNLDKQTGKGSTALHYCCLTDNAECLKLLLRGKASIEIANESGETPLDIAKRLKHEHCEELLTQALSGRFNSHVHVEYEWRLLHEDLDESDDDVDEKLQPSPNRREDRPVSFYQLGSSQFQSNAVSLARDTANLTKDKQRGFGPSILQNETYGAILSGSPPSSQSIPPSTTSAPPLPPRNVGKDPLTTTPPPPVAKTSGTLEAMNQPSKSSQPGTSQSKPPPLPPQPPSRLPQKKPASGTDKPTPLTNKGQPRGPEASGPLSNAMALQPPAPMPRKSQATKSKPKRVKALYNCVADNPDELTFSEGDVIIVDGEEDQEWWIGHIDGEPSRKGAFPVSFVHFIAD

T1: ADP-ribosylation factor-like protein 15 (ARL15) (mouse (endogenous in mouse brain, iWAT and 3T3-L1)) (UniProt Q8BGR6)
T1 sequence: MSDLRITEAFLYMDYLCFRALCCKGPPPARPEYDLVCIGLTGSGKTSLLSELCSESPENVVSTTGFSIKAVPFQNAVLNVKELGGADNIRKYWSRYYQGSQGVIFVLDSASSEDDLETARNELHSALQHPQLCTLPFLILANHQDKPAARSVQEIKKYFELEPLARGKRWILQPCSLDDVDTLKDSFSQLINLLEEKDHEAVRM


Legend:
[1] = target: T1, ADP-ribosylation factor-like protein 15 (ARL15) (mouse (endogenous in mouse brain, iWAT and 3T3-L1)); assay: affinity purification with mass spectrometry; immunoprecipitation with anti-ARL15 antibody and Protein G Sepharose from WT mouse brain lysate (control: homozygous Arl15 knockout brain), WT iWAT lysate and 3T3-L1 lysates at D-3, D0 and D4 (control: IgG); lysis buffer with 5 mM MgCl2; whole precipitates analysed by mass spectrometry
[2] = target: T1, ADP-ribosylation factor-like protein 15 (ARL15) (mouse (endogenous in mouse brain, iWAT and 3T3-L1)); assay: as above; remark: listed apart in the source

| Molecule | binding [1] | binding [2] |
| --- | --- | --- |
| ArfGAP protein containing a SH3 Domain, Ankyrin Repeat And PH Domain 2 (ASAP2) (from UniProt Q7SIG6 1-958) | no binding | – |
| glucose transporter type 4 (GLUT4) (protein, UniProt P14142 1-509) MPSGFQQIGSDDGEPPRQRVTGTLVLAVFSAVLGSLQFGYNIGVINAPQKVIEQSYNATWLGRQGPGGPDSIPQGTLTTLWALSVAIFSVGGMISSFLIGIISQWLGRKRAMLANNVLAVLGGALMGLANAAASYEILILGRFLIGAYSGLTSGLVPMYVGEIAPTHLRGALGTLNQLAIVIGILVAQVLGLESMLGTATLWPLLLALTVLPALLQLILLPFCPESPRYLYIIRNLEGPARKSLKRLTGWADVSDALAELKDEKRKLERERPMSLLQLLGSRTHRQPLIIAVVLQLSQQLSGINAVFYYSTSIFESAGVGQPAYATIGAGVVNTVFTLVSVLLVERAGRRTLHLLGLAGMCGCAILMTVALLLLERVPAMSYVSIVAIFGFVAFFEIGPGPIPWFIVAELFSQGPRPAAMAVAGFSNWTCNFIVGMGFQYVADAMGPYVFLLFAVLLLGFFIFTFLKVPETRGRTFDQISAAFRRTPSLLEQEVKPSTELEYLGPDEND | – | no binding |

Other lines, results leading:

| binding [1] | binding [2] | Molecule |
| --- | --- | --- |
| – | no binding | adiponectin (protein, UniProt Q60994 18-247) EDDVTTTEELAPALVPPPKGTCAGWMAGIPGHPGHNGTPGRDGRDGTPGEKGEKGDAGLLGPKGETGDVGMTGAEGPRGFPGTPGRKGEPGEAAYVYRSAFSVGLETRVTVPNVPIRFTKIFYNQQNHYDGSTGKFYCNIPGLYYFSYHITVYMKDVKVSLFKKDKAVLFTYDQYQEKNVDQASGSVLLHLEVGDQVWLQVYGDGDHNGLYADNVNDSTFTGFLLYHDTN |
| – | binds | ADP Ribosylation Factor like GTPase 6 Interacting Protein 5 (ARL6IP5) (protein, UniProt Q8R5J9 1-188) MDVNLAPLRAWDDFFPGSDRFARPDFRDISKWNNRVVSNLLYYQTNYLVVAAMMISVVGFLSPFNMILGGVIVVLVFMGFVWAAHNKDILRRMKKQYPTAFVMVVMLASYFLISMFGGVMVFVFGITLPLLLMFIHASLRLRNLKNKLENKMEGIGLKKTPMGIILDALEQQEDNINKFADYISKARE |

Read-outs that look alike come from different tables or passages of the source. Results are given in words; binding and its absence hold for the method and conditions named. Binding seen in cells or lysates may run through a third protein. A yes stands for co-enrichment or nearness to the bait. Other partners may have been found. No binding means not detected with the bait. For some of these results: Tags and fused reporters may be left off the sequences shown.
